Consider two molecules from the GenesisPotency data set.

The chains behind the UniProt entries cited, without tags or fusion partners. A line that says so, or that is headed by a name, gives the form on record, which may keep a tag or linker.
UniProt Q12809, as listed by the source: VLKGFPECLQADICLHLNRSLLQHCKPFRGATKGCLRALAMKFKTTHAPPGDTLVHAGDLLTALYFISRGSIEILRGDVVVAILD

Each structure is given as a SMILES string. In all, about 340,000 compounds went through this assay and about 3,300 (0.97%) were called active.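 Rule for the calls: active = maximum activity change below -70%; inconclusive = maximum activity change from -70% to -50%; inactive = maximum activity change above -50%.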 Some of the results follow.

The experiment concerns the target Voltage-gated inwardly rectifying potassium channel KCNH2, Homo sapiens (UniProt Q12809). Put plainly: qHTS for Inhibitors of KCHN2 3.1: Mutant qHTS.
In the case of `CCCCNC(=O)O[C@@H]1C[C@@H]2CCN3C(=O)CCC[C@H]([C@H]1CC)[C@H]23`, the outcome was inactive.

For the molecule `O=C1[C@H](Cc2ccccc2)NCC=CC[C@@H](c2ccc(Cl)cc2)N1Cc1ccc(Cl)cc1`, the molecule was called inactive.
